This note sets out measurements from the supplement of paper PMC12067093, “Discovery and optimisation of a covalent ligand for TRIM25 and its application to targeted protein ubiquitination” (Chemical Science, 2025).

By UniProt entry, the sequences of proteins in these tests, tags left out. Where a name states a change or a piece, a line headed by the entry shows the natural chain unless it says otherwise.
UniProt P25098: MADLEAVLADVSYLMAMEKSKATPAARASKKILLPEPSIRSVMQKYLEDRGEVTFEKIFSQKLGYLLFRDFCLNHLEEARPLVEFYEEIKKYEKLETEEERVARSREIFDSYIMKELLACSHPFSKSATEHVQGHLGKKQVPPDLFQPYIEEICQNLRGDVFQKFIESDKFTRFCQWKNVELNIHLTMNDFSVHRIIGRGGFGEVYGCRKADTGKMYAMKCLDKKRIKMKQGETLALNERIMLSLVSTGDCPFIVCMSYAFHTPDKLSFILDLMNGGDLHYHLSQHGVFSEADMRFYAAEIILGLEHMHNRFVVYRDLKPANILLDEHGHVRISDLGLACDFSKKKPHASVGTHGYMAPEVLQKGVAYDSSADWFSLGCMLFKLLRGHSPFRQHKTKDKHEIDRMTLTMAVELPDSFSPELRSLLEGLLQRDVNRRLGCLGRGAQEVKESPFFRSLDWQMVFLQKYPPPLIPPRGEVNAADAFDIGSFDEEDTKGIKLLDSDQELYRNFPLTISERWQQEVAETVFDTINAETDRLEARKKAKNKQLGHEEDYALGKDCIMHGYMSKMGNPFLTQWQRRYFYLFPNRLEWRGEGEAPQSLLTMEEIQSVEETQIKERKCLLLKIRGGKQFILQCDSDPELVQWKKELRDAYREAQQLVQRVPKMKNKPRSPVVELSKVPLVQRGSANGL
UniProt P28799: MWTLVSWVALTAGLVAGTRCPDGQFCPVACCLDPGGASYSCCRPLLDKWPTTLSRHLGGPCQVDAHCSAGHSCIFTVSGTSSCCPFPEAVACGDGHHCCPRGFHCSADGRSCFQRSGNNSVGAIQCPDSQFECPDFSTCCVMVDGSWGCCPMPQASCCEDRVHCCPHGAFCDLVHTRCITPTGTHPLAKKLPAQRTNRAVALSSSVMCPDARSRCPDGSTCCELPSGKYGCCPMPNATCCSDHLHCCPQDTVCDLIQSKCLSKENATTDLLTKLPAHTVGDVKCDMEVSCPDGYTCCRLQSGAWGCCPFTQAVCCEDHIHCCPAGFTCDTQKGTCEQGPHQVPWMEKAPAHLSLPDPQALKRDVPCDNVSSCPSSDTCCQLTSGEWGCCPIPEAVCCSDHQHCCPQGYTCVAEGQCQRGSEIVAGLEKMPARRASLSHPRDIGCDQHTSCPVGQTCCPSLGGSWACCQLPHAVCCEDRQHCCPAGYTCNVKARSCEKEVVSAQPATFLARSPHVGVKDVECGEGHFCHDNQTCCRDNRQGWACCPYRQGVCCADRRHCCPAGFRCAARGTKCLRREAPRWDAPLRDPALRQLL
UniProt Q03013: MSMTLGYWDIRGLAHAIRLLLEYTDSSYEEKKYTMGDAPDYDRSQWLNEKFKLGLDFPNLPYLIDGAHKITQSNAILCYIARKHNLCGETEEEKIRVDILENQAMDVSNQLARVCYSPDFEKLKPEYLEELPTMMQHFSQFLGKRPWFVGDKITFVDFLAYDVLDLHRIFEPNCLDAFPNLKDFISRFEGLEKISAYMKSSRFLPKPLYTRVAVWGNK
UniProt P07203, whole entry, looked up: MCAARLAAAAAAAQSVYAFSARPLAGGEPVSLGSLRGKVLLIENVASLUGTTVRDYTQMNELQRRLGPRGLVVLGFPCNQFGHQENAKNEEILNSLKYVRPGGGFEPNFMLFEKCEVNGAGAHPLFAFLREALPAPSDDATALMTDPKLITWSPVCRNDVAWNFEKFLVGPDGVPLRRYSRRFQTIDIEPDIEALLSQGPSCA
UniProt P13807: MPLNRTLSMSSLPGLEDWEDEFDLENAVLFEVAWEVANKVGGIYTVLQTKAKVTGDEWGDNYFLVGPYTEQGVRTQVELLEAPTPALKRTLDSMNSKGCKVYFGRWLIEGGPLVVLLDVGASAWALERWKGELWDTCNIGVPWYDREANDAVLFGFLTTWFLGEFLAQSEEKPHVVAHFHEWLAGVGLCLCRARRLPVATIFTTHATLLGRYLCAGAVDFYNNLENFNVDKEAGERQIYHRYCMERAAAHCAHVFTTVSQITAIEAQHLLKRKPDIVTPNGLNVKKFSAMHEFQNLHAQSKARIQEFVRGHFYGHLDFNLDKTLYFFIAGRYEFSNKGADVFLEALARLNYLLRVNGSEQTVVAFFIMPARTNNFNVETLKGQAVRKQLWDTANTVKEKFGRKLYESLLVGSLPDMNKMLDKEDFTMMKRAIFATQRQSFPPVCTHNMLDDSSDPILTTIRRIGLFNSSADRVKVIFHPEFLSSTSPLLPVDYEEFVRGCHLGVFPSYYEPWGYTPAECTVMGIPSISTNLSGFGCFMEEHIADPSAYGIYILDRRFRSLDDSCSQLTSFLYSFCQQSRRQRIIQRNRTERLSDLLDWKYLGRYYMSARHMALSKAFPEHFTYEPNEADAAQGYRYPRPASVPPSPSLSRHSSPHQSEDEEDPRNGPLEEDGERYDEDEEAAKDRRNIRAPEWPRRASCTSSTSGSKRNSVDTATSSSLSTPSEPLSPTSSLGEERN
UniProt Q8WW33: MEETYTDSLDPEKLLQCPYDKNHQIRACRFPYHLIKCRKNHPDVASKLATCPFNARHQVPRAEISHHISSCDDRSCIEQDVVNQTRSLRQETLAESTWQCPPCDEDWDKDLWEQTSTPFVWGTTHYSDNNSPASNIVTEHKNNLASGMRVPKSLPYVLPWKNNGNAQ
UniProt P57764: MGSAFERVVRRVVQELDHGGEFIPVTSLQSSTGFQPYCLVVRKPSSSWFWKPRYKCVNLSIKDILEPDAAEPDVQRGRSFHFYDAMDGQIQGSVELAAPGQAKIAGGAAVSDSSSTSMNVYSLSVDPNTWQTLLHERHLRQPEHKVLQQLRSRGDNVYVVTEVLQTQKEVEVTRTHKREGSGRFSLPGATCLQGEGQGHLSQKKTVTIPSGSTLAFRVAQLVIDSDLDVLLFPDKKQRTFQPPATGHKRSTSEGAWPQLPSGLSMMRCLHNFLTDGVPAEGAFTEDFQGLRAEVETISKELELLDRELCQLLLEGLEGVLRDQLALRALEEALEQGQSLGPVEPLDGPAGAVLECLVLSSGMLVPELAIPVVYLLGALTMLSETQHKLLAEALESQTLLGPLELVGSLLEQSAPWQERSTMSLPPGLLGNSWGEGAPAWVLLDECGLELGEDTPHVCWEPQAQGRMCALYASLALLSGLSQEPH
UniProt Q9UBQ7: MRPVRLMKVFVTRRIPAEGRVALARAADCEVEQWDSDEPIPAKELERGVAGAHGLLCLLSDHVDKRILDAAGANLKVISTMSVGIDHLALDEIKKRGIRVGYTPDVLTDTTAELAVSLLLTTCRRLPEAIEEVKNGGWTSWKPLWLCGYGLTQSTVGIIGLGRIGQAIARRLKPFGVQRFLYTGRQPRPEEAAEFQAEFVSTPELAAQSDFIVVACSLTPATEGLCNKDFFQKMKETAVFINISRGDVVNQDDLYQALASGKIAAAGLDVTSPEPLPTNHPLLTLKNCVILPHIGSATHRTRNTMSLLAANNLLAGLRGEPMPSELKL
UniProt P09488: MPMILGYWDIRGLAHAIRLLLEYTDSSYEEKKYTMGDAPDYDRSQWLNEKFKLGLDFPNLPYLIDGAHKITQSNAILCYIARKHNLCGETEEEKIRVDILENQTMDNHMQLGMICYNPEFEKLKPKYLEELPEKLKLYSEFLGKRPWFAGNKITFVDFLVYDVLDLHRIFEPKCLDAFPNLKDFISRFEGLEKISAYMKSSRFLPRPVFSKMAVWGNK
UniProt Q9H6D7: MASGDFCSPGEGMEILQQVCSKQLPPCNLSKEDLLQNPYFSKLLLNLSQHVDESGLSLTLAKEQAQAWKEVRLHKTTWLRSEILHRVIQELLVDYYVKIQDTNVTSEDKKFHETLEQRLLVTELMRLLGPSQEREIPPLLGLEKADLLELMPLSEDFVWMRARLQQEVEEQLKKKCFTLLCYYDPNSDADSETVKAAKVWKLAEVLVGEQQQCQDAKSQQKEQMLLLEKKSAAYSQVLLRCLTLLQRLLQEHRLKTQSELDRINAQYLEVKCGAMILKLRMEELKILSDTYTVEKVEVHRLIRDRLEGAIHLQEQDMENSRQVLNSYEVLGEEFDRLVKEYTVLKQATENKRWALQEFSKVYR

The other results are listed elsewhere or left out.

Compound in this test: Cc1cc(ccc1-c1ccccc1)C(=O)N1CCCN(CC1)C(=O)CCl [compound 10]
Kind of test: probe-labelled cysteine peptide fold change vs DMSO (competition) (log2 fold change); higher = less target engagement (more negative = stronger competition). Particulars: THP-1, incubation time: 4 h.
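Note: competitive profiling in live THP-1 cells: cysteine peptides tagged with an iodoacetamide desthiobiotin (IA-DTB) probe, intensity after compound treatment relative to DMSO-treated cells.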

Turning to “GRK2_P25098_120_ELLACSHPFSK (UniProt P25098)”, the “probe-labelled cysteine peptide fold change” value by setting is: (10 µM) -0.194; (50 µM) -0.509.
Taken in the same sequence, the figures for “GRN_P28799_543_QGWACCPYR (UniProt P28799)” were 0.00927 and 0.0238.
In the same order, the values of “GSTM4_Q03013_174_IFEPNCLDAFPNLK (UniProt Q03013)” are 0.162 and 0.311.
With “GRAMD1A_Q96CP6_456_RGPQAGGCVVDSEVLTQGIPYQDYFYTAHR (UniProt Q96CP6)”, the “probe-labelled cysteine peptide fold change” value was -0.1 (10 µM) and -0.00633 (50 µM).
In the same order, the values of “GRN_P28799_165+171_VHCCPHGAFCDLVHTR (UniProt P28799)” are 0.144 and -0.0654.
Consider “GPX1_P07203_78_GLVVLGFPCNQFGHQENAK (UniProt P07203)”, for which the “probe-labelled cysteine peptide fold change” value amounted to 0.15 (10 µM) and 0.0456 (50 µM).
Regarding “GPX1_P07203_49_VLLIENVASLUGTTVR (UniProt P07203)”, the “probe-labelled cysteine peptide fold change” value is, setting by setting: (10 µM) 0.118; (50 µM) 0.123.
In the same order, the values of “GYS1_P13807_699_ASCTSSTSGSK (UniProt P13807)” are -0.326 and -0.925.
As for “GSTCD_Q8NEC7_449_IVDFCSGGGHVGIVLAHMLPSCQVTLIENK (UniProt Q8NEC7)”, the “probe-labelled cysteine peptide fold change” value is 0.0895 (10 µM) and -0.0866 (50 µM).
Taken in the same sequence, the figures for “GTSF1_Q8WW33_71_AEISHHISSCDDR (UniProt Q8WW33)” were 0.0863 and -0.0663.
Take “GSDMD_P57764_191_FSLPGATCLQGEGQGHLSQKK (UniProt P57764)”: the “probe-labelled cysteine peptide fold change” value was -0.00104 (10 µM) and -0.614 (50 µM).
As for “GRHPR_Q9UBQ7_57_GVAGAHGLLCLLSDHVDK (UniProt Q9UBQ7)”, the “probe-labelled cysteine peptide fold change” value (10 µM) was found to be 0.0501 and the “probe-labelled cysteine peptide fold change” value (50 µM) is 0.157.
In the same order, the values of “GSTM1_P09488_115_IRVDILENQTMDNHMQLGMICYNPEFEK (UniProt P09488)” are 0.127 and -0.0126.
With “HAUS4_Q9H6D7_272_CGAMILK (UniProt Q9H6D7)”, the “probe-labelled cysteine peptide fold change” value by setting is: (10 µM) 0.243; (50 µM) 0.137.
